Data as given in PubChem BioAssay AID743454 (Peter MacCallum Cancer Centre, 2014)

- Purpose: 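Genes whose loss kills vorinostat-resistant colon cancer cells under vorinostat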 (primary screen)
- Cell system: human HCT116-VR colon cancer cells, selected for vorinostat resistance
- Knock-down reagent: siRNA pool against human genes, 40 nM siRNA pool
- Timing: vorinostat for 24 h, read-out about 72 h after transfection
- Challenge: vorinostat at 2.5 µM final
- Measurement: 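Two measures, CellTiter-Fluor viability and luminescent caspase 3/7 activity, each as fold change against same-plate mock wells, mean of duplicates, then screen-wide robust z-score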
- Direction: viability robust z-score: higher = more viable cells than screen typical; caspase robust z-score: higher = more caspase 3/7 activity than screen typical
- Active means: 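Hits are knock-downs in viability class RV1/RV2 or caspase class CA1/CA2, excluding ones that killed cells in the no-drug cell-count arm; hits then retested with single siRNAs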
This is a random part of about 18,000 reagents. Of all reagents, 450 (2.5%) were called active. 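Single biological run; no consistent viability z cut-off exists, so the class columns, not z-scores, define the calls.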 Entries without a mark were called inactive.

gene knocked down,viability hit class,caspase hit class,viability robust z-score,caspase robust z-score
OTOS (otospiralin),no change (active),CA1 (caspase activation),0.85,5.13
"MPL (MPL proto-oncogene, thrombopoietin receptor)",no change,no change,0.65,-0.7
ACO2 (aconitase 2),RV2 (reduced viability) (active),no change,-3.17,-1.21
PCLAF (PCNA clamp associated factor),no change,no change,-0.78,1.29
LMBR1 (limb development membrane protein 1),no change,no change,0.27,2.17
DNAJC5 (DnaJ heat shock protein family (Hsp40) member C5),no change,no change,1.85,1.25
RCE1 (Ras converting CAAX endopeptidase 1),no change (active),CA1 (caspase activation),-0.07,5.32
"RHEB (Ras homolog, mTORC1 binding)",no change,no change,-0.07,-0.97
MED6 (mediator complex subunit 6),no change,no change,-1.47,2.23
OSTC (oligosaccharyltransferase complex non-catalytic subunit),no change,no change,1,0.42
TNFRSF1B (TNF receptor superfamily member 1B),no change,no change,-0.41,0.54
AIG1 (androgen induced 1),no change,no change,-0.46,0.1
IL1R2 (interleukin 1 receptor type 2),no change,no change,1.49,-0.15
SLC36A2,no change,no change,0.04,0.92
RGS16 (regulator of G protein signaling 16),no change,no change,-1.33,0.26
FAM163B (family with sequence similarity 163 member B),no change,no change,-0.95,2.66
TNFRSF13C (TNF receptor superfamily member 13C),no change,no change,-0.98,0.16
PLP2 (proteolipid protein 2),no change,no change,0.4,-1.08
RASGEF1B (RasGEF domain family member 1B),no change,no change,1.49,-0.18
CHODL (chondrolectin),no change,no change,-0.96,1.1
GSTT1 (glutathione S-transferase theta 1),no change,no change,-0.92,3.97
HOXA4 (homeobox A4),no change,no change,0.36,1
TCP10L3 (t-complex 10 like 3 (pseudogene)),no change,no change,-0.57,-0.84
PEX11B (peroxisomal biogenesis factor 11 beta),no change,no change,1.54,0.12
MGARP (mitochondria localized glutamic acid rich protein),no change,no change,0.38,-0.35
LHPP,no change,no change,-0.71,0.36
FAM76B (family with sequence similarity 76 member B),no change,no change,0.92,-0.3
ADO (2-aminoethanethiol dioxygenase),no change,no change,-0.25,0.67
TBC1D2 (TBC1 domain family member 2),no change,no change,-0.16,0.96
BCL2L15 (BCL2 like 15),no change,no change,-0.52,-0.03
ITPRID2 (ITPR interacting domain containing 2),no change,no change,0.52,-0.26
EPC1 (enhancer of polycomb 1),no change,no change,0.54,-0.37
PCDHA11 (protocadherin alpha 11),no change,no change,-0.38,1.52
"ETS1 (ETS proto-oncogene 1, transcription factor)",no change,no change,-1.19,-1.16
TNIK (TRAF2 and NCK interacting kinase),no change,no change,1,-0.28
ABCB9 (ATP binding cassette subfamily B member 9),no change,no change,0.8,-0.54
MAGEF1 (MAGE family member F1),no change,no change,0.78,-0.23
RUFY3 (RUN and FYVE domain containing 3),no change,no change,-0.73,0.19
CBLN1 (cerebellin 1 precursor),no change,no change,0.02,0.04
CPXCR1 (CPX chromosome region candidate 1),no change,no change,-1.94,3.63
"LONP2 (lon peptidase 2, peroxisomal)",no change,no change,-1.01,1.71
CCL8 (C-C motif chemokine ligand 8),no change,no change,-1.01,-0.29
RUSF1 (RUS family member 1),no change,no change,0.85,-0.96
NT5DC2 (5'-nucleotidase domain containing 2),no change,no change,1.82,1.6
KRTAP12-3 (keratin associated protein 12-3),no change,no change,-0.16,-0.66
VCP (valosin containing protein),no change,no change,-2.87,3.08
ALDH4A1 (aldehyde dehydrogenase 4 family member A1),no change,no change,0.2,-0.66
SORBS1 (sorbin and SH3 domain containing 1),no change,no change,0.44,-1.03
FCGR3B (Fc gamma receptor IIIb),no change,no change,-0.33,-0.14
PTCD3 (pentatricopeptide repeat domain 3),no change,no change,0.9,-0.59
KIF21A (kinesin family member 21A),no change,no change,-1.98,-0.6
RRP36 (ribosomal RNA processing 36),no change,no change,-0.88,-1.27
TNS2 (tensin 2),no change,no change,0.99,3.97
NLRC3 (NLR family CARD domain containing 3),no change,no change,-2.21,0.08
FER1L6 (fer-1 like family member 6),no change,no change,0.15,-0.86
LILRB5 (leukocyte immunoglobulin like receptor B5),no change,no change,0.41,-0.1
DNAJC24 (DnaJ heat shock protein family (Hsp40) member C24),no change,no change,-0.36,-0.17
YIPF6 (Yip1 domain family member 6),no change,no change,-0.57,-0.31
POLR3GL (RNA polymerase III subunit GL),no change,no change,1.36,0.86
PRNP (prion protein (Kanno blood group)),no change,no change,0.72,-0.32
GSTCD (glutathione S-transferase C-terminal domain containing),no change,no change,2.09,2.36
DCAF7 (DDB1 and CUL4 associated factor 7),no change,no change,-0.94,3.4
DNM2 (dynamin 2),no change,no change,1.27,2.23
ITGB8 (integrin subunit beta 8),no change,no change,-0.6,0.88
CDK18 (cyclin dependent kinase 18),no change,no change,-2.18,0.88
SARDH (sarcosine dehydrogenase),no change,no change,0.14,-1.3
UGT8 (UDP glycosyltransferase 8),no change,no change,1.52,0.11
KBTBD12 (kelch repeat and BTB domain containing 12),no change,no change,0.7,0.19
HID1 (HID1 domain containing),no change,no change,-0.38,-0.52
SNAPC1 (small nuclear RNA activating complex polypeptide 1),no change,no change,-1.26,-0.42
CHIC2 (cysteine rich hydrophobic domain 2),no change,no change,1.64,-0.62
ADGRG1 (adhesion G protein-coupled receptor G1),no change,no change,-0.08,-0.26
SHC1 (SHC adaptor protein 1),no change,no change,-1.96,0.61

No new results follow: 11 of the entries above.
gene knocked down,viability hit class,caspase hit class,viability robust z-score,caspase robust z-score
ADO (2-aminoethanethiol dioxygenase),no change,no change,-0.25,0.67
TBC1D2 (TBC1 domain family member 2),no change,no change,-0.16,0.96
BCL2L15 (BCL2 like 15),no change,no change,-0.52,-0.03
ITPRID2 (ITPR interacting domain containing 2),no change,no change,0.52,-0.26
EPC1 (enhancer of polycomb 1),no change,no change,0.54,-0.37
PCDHA11 (protocadherin alpha 11),no change,no change,-0.38,1.52
"ETS1 (ETS proto-oncogene 1, transcription factor)",no change,no change,-1.19,-1.16
TNIK (TRAF2 and NCK interacting kinase),no change,no change,1,-0.28
ABCB9 (ATP binding cassette subfamily B member 9),no change,no change,0.8,-0.54
MAGEF1 (MAGE family member F1),no change,no change,0.78,-0.23
RUFY3 (RUN and FYVE domain containing 3),no change,no change,-0.73,0.19
